Literature values, collected in patent US6368613B1, “Use of fluorocarbons for diagnosis and treatment of articular disorders” (Alliance Pharmaceutical Corp., priority 1996, dated 2002).
At least one compound was matched to its structure with a doubt left.

Conditions: octanol/water partition coefficient

Compound: O=C1Nc2ccc(Cl)cc2C(c2ccccc2)=NC1O (stereo not shown) [oxazepam]
- Po/w: 1.78 × 10^2
